# This continues a long series; more values of the same kind are listed elsewhere.
# Key:
# Assay type in all cases: cell-based
# Conditions in all cases: U-87MG ATCC
# [1] = Inhibition of RTK/PI3K/AKT/mTOR signaling in human U87 cells assessed as down regulation of CDCA5 gene expression at cytotoxic IC50 measured after 48 hrs relative to control
# [2] = Inhibition of RTK/PI3K/AKT/mTOR signaling in human U87 cells assessed as down regulation of STK10 gene expression at cytotoxic IC50 measured after 48 hrs relative to control
# [3] = Inhibition of RTK/PI3K/AKT/mTOR signaling in human U87 cells assessed as up regulation of plakophilin 3 gene expression at cytotoxic IC50 measured after 48 hrs relative to control
# [4] = Inhibition of RTK/PI3K/AKT/mTOR signaling in human U87 cells assessed as down regulation of GINS2 gene expression at cytotoxic IC50 measured after 48 hrs relative to control
# [5] = Inhibition of RTK/PI3K/AKT/mTOR signaling in human U87 cells assessed as down regulation of PLA2G15 gene expression at cytotoxic IC50 measured after 48 hrs relative to control
# [6] = Inhibition of RTK/PI3K/AKT/mTOR signaling in human U87 cells assessed as up regulation of NORAD gene expression at cytotoxic IC50 measured after 48 hrs relative to control
# [7] = Inhibition of RTK/PI3K/AKT/mTOR signaling in human U87 cells assessed as down regulation of SEC14L2 gene expression at cytotoxic IC50 measured after 48 hrs relative to control
# [8] = Inhibition of RTK/PI3K/AKT/mTOR signaling in human U87 cells assessed as down regulation of NISCH gene expression at cytotoxic IC50 measured after 48 hrs relative to control
# [9] = Inhibition of RTK/PI3K/AKT/mTOR signaling in human U87 cells assessed as up regulation of acetyl-CoA acetyltransferase 1 gene expression at cytotoxic IC50 measured after 48 hrs relative to control
# [10] = Inhibition of RTK/PI3K/AKT/mTOR signaling in human U87 cells assessed as down regulation of MIDN gene expression at cytotoxic IC50 measured after 48 hrs relative to control
# [11] = Inhibition of RTK/PI3K/AKT/mTOR signaling in human U87 cells assessed as up regulation of CKLF like MARVEL transmembrane domain containing 7 gene expression at cytotoxic IC50 measured after 48 hrs relative to control
# [12] = Inhibition of RTK/PI3K/AKT/mTOR signaling in human U87 cells assessed as down regulation of PDCD10 gene expression at cytotoxic IC50 measured after 48 hrs relative to control
# [13] = Inhibition of RTK/PI3K/AKT/mTOR signaling in human U87 cells assessed as down regulation of SLC44A2 gene expression at cytotoxic IC50 measured after 48 hrs relative to control
# [14] = Inhibition of RTK/PI3K/AKT/mTOR signaling in human U87 cells assessed as up regulation of zinc finger and BTB domain containing 7A gene expression at cytotoxic IC50 measured after 48 hrs relative to control
# [15] = Inhibition of RTK/PI3K/AKT/mTOR signaling in human U87 cells assessed as down regulation of CCDC117 gene expression at cytotoxic IC50 measured after 48 hrs relative to control
# [16] = Inhibition of RTK/PI3K/AKT/mTOR signaling in human U87 cells assessed as up regulation of nipsnap homolog 1 gene expression at cytotoxic IC50 measured after 48 hrs relative to control
# [17] = Inhibition of RTK/PI3K/AKT/mTOR signaling in human U87 cells assessed as up regulation of MALT1 gene expression at cytotoxic IC50 measured after 48 hrs relative to control
# [18] = Inhibition of RTK/PI3K/AKT/mTOR signaling in human U87 cells assessed as down regulation of ZNF530 gene expression at cytotoxic IC50 measured after 48 hrs relative to control
# [19] = Inhibition of RTK/PI3K/AKT/mTOR signaling in human U87 cells assessed as down regulation of AP2S1 gene expression at cytotoxic IC50 measured after 48 hrs relative to control
# [20] = Inhibition of RTK/PI3K/AKT/mTOR signaling in human U87 cells assessed as up regulation of anoctamin 1 gene expression at cytotoxic IC50 measured after 48 hrs relative to control
# [21] = Inhibition of RTK/PI3K/AKT/mTOR signaling in human U87 cells assessed as down regulation of TUBB gene expression at cytotoxic IC50 measured after 48 hrs relative to control
# [22] = Inhibition of RTK/PI3K/AKT/mTOR signaling in human U87 cells assessed as up regulation of PBX2 gene expression at cytotoxic IC50 measured after 48 hrs relative to control
# [23] = Inhibition of RTK/PI3K/AKT/mTOR signaling in human U87 cells assessed as up regulation of DPP7 gene expression at cytotoxic IC50 measured after 48 hrs relative to control
# [24] = Inhibition of RTK/PI3K/AKT/mTOR signaling in human U87 cells assessed as up regulation of aspartate beta-hydroxylase gene expression at cytotoxic IC50 measured after 48 hrs relative to control
# [25] = Inhibition of RTK/PI3K/AKT/mTOR signaling in human U87 cells assessed as down regulation of WWP2 gene expression at cytotoxic IC50 measured after 48 hrs relative to control
# [26] = Inhibition of RTK/PI3K/AKT/mTOR signaling in human U87 cells assessed as down regulation of SUPT16H gene expression at cytotoxic IC50 measured after 48 hrs relative to control
# [27] = Inhibition of RTK/PI3K/AKT/mTOR signaling in human U87 cells assessed as down regulation of TUFT1 gene expression at cytotoxic IC50 measured after 48 hrs relative to control
# [28] = Inhibition of RTK/PI3K/AKT/mTOR signaling in human U87 cells assessed as down regulation of GABARAPL1 gene expression at cytotoxic IC50 measured after 48 hrs relative to control
# [29] = Inhibition of RTK/PI3K/AKT/mTOR signaling in human U87 cells assessed as up regulation of notchless homolog 1 gene expression at cytotoxic IC50 measured after 48 hrs relative to control
# [30] = Inhibition of RTK/PI3K/AKT/mTOR signaling in human U87 cells assessed as up regulation of adenosine deaminase, tRNA specific 2 gene expression at cytotoxic IC50 measured after 48 hrs relative to control
# [31] = Inhibition of RTK/PI3K/AKT/mTOR signaling in human U87 cells assessed as down regulation of SUCO gene expression at cytotoxic IC50 measured after 48 hrs relative to control
# [32] = Inhibition of RTK/PI3K/AKT/mTOR signaling in human U87 cells assessed as up regulation of CLCN3 gene expression at cytotoxic IC50 measured after 48 hrs relative to control
compound,measurement,setting,value
CC(=O)C(=NNc1ccccc1C#N)C(C)=O,log2FC,[1],-1.2
same,log2FC,[2],-1.25
same,log2FC,[3],0.863
same,log2FC,[4],-1.29
same,log2FC,[5],-1.58
same,log2FC,[6],0.623
same,log2FC,[7],-0.891
same,log2FC,[8],-0.462
same,log2FC,[9],0.8
same,log2FC,[10],-1.81
same,log2FC,[11],1.52
same,log2FC,[12],-0.661
same,log2FC,[13],-1
same,log2FC,[14],0.921
same,log2FC,[15],-1.03
same,log2FC,[16],0.647
same,log2FC,[17],1.91
same,log2FC,[18],-2.28
same,log2FC,[19],-0.556
same,log2FC,[20],1.35
same,log2FC,[21],-0.562
same,log2FC,[22],1.6
same,log2FC,[23],0.595
same,log2FC,[24],1.14
same,log2FC,[25],-0.536
same,log2FC,[26],-0.422
same,log2FC,[27],-1.82
same,log2FC,[28],-0.474
same,log2FC,[29],0.915
same,log2FC,[30],1.3
same,log2FC,[31],-0.651
same,log2FC,[32],0.525

# — ChEMBL document CHEMBL4316593 (Eur J Med Chem, 2019)
